For 4 substances, binding results are on record in publication PMC5735797.

Sequences of proteins named here, by UniProt entry; tags and fusion partners are left off.
UniProt Q13951: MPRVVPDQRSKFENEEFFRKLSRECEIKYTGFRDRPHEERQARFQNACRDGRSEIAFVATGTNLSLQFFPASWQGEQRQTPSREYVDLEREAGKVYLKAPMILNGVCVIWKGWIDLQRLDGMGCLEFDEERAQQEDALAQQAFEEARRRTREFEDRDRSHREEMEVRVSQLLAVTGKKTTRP
UniProt Q93034: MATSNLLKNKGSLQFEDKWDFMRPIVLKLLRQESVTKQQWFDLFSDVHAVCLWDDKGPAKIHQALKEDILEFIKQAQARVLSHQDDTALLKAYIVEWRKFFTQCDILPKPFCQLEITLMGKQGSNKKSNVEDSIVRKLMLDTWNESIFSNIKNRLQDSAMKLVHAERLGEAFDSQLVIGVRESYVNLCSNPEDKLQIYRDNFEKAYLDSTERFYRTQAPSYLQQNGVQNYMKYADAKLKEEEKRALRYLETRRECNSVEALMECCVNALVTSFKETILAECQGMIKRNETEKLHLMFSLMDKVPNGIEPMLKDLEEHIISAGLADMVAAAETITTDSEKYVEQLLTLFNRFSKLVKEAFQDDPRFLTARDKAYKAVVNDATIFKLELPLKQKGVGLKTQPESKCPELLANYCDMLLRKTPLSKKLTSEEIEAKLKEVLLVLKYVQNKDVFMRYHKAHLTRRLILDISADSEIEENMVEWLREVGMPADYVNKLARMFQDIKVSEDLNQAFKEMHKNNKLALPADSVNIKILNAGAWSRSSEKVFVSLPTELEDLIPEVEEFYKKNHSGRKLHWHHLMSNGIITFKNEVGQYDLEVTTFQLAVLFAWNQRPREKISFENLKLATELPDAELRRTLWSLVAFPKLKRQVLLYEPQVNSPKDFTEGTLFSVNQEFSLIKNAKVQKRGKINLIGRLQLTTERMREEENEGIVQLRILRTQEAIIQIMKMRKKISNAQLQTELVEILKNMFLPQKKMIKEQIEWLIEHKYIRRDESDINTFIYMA
UniProt Q15370: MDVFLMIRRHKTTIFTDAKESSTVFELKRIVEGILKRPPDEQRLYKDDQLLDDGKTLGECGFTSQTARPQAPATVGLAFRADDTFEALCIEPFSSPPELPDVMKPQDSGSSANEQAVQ

No constants are given. Whether binding was seen depends on the method and setting. Binding seen in cells or lysates may run through a third protein. Some binding calls cover weakened binding; strength is not graded here. Sequences can lack the tags named with a protein.

Assay [1] addresses T1, MOV10 with HA tag (pcDNA3.1-MOV10-HA) (UniProt Q9HCE1).
T1 sequence: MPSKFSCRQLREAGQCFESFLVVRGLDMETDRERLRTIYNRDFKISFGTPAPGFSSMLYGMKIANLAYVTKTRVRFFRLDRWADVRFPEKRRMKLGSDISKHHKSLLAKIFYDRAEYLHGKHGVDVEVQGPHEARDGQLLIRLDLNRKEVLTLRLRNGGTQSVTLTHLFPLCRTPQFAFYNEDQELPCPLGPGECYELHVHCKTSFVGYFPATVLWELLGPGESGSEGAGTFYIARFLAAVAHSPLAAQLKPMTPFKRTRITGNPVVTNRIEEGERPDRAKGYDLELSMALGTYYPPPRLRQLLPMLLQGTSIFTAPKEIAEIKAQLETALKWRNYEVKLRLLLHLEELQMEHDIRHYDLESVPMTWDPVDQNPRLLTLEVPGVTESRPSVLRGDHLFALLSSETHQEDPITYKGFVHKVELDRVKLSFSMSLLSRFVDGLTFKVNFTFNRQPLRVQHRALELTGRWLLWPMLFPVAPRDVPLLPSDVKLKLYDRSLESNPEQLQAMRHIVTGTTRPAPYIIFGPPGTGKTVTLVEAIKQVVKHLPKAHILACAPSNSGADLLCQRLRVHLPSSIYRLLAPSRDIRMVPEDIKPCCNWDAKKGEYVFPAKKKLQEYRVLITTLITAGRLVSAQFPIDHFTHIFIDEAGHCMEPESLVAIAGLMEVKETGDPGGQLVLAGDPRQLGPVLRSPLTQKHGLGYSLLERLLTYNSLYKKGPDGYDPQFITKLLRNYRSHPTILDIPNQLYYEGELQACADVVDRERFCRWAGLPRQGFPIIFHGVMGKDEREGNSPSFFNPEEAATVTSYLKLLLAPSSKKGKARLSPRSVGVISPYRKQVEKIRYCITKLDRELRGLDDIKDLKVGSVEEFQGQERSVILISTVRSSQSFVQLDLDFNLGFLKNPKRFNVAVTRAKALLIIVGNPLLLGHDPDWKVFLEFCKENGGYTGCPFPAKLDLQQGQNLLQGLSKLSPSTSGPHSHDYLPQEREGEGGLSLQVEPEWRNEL
The assay can be described thus: co-IP; lysates of transfected 293T cells (150 mM NaCl, 50 mM Tris-HCl pH 7.5, 1 mM EDTA, 1% Triton X-100, 0.5% NP-40) on anti-HA agarose beads, 4 h at 4 °C, four washes, western blotting; in some panels cells treated with MG132 (4 μM, 16 h) or co-transfected with siRNAs against ElonginB, ElonginC or Cullin 5. (A western blot detects proteins with antibodies after separation by electrophoresis.)

Assay [2] deals with T1, MOV10 with HA tag (pcDNA3.1-MOV10-HA). The assay can be described thus: co-IP; as a1, but the anti-HA beads were treated with RNase mixture (20 μg/ml) at 37 °C for 30 min; cells co-transfected with siRNAs against the other two of ElonginB, ElonginC, Cullin 5.

As to “CBF-β with FLAG tag (pcDNA3.1-CBF-β-FLAG) (from UniProt Q13951 1-182)”, in assay [1], the binding entry is “no binding”.

Turning to “Cullin 5 with FLAG tag (pcDNA3.1-Cullin 5-FLAG) (from UniProt Q93034 1-780)”, the binding entry in assay [2] and in assay [1] was “binds” throughout.

Turning to “ElonginB with FLAG tag (pcDNA3.1-ElonginB-FLAG) (from UniProt Q15370 1-118)”, the binding result in assay [1] is recorded as “no binding”.

Take “endogenous Cullin 5 (from UniProt Q93034 1-780)”: the binding entry in assay [1] is “binds”.
